# The list shows a part of the results.
# Amino acid sequences for entries named in this document (tags omitted).
# UniProt Q0JBA9, entry or part of it: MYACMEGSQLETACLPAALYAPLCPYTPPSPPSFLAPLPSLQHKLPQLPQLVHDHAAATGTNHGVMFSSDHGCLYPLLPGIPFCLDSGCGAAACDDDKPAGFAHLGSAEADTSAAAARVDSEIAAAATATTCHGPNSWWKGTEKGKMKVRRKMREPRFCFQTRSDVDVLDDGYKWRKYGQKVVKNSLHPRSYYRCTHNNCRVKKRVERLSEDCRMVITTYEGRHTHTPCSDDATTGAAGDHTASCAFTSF
# Biological target: OsWRKY34 (Oryza sativa, UniProt Q0JBA9 1-250)
# Assay: protein-binding microarray (RPBM); PBS, 2% BSA, 51.3 ng/ul salmon testes DNA, 50 uM zinc acetate, 200 nM TF, 25 C, 1 h; high values mean tight binding
# Details: protein: recombinant; tags: N-terminal polyhistidine and DsRed monomer fusion (pET32a); label: CyDye5-dUTP incorporated in the synthesized complementary strand; 3' TTTTT single-stranded linker to array surface; dsDNA, one strand shown
# Summary of the method: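 Using Ni–NTA, transcription factors fused N-terminally to polyhistidine and DsRed were purified after expression in E. coli BL21-CodonPlus. These were incubated at 200 nM with a blocked, double-stranded custom Agilent array for 1 h at 25 °C in a buffer containing 50 µM zinc acetate, and the array was washed. The binding signal is per-feature fluorescence intensity (arbitrary units) on an Axon 4000B scanner.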
row,Sequence,binding signal
1,TCCACATTCTTCATTCTCCATTAATTTCACGGTTTCATCTCGGAGTCACCTAGTGCAG,9980 fluorescence intensity (a.u.)
2,GAGGCGGGTGGGCGAGCTCCGGCGGCGGCGGGGTGGCCTTCGGAGTCACCTAGTGCAG,15800 fluorescence intensity (a.u.)
3,TCCACGTTGACCACATCGCGTCACACCGTCCACGACTTTTCGGAGTCACCTAGTGCAG,12700 fluorescence intensity (a.u.)
4,TCATGTTCATCTTGGCCAACAATTTCTTACTTTCTTTCTCCGGAGTCACCTAGTGCAG,8930 fluorescence intensity (a.u.)
5,GATTGCTTTTATCTTGTTCTTGCTTGTTTCTTCGATTTGCCGGAGTCACCTAGTGCAG,8790 fluorescence intensity (a.u.)
6,GCGCTGATCTCGTCGTCTTCCTTGCATTGGCGCCGCTCAACGGAGTCACCTAGTGCAG,10900 fluorescence intensity (a.u.)
7,ACTTTTGCCATCGTGGACACACTATCACCAGGCTCCAGCTCGGAGTCACCTAGTGCAG,8520 fluorescence intensity (a.u.)
8,TTAAAGTTCAGTTGACGTCCTACATTTTGCTTTACCGCTGCGGAGTCACCTAGTGCAG,9500 fluorescence intensity (a.u.)
9,CCGTTACGCGATCATCTCATCTCGCCGAGTCATCAGCCGCCGGAGTCACCTAGTGCAG,8370 fluorescence intensity (a.u.)
10,ACGCCGGTTGTTCGTTGCTCCCTGCGTTTATAAATCCGATCGGAGTCACCTAGTGCAG,9820 fluorescence intensity (a.u.)
11,TTCATATCATATAAAATCTATTGTTTTTGCCTACAACTTTCGGAGTCACCTAGTGCAG,8120 fluorescence intensity (a.u.)
12,TTTATAGTCCCGGTTGGTATTATATTGAATGTTTGGACATCGGAGTCACCTAGTGCAG,8200 fluorescence intensity (a.u.)
13,AACATCACCGCAGCGCCATGCCACCACACGTCCGGAAAGTCGGAGTCACCTAGTGCAG,11000 fluorescence intensity (a.u.)
14,CCTATACTGATATACTACTACTACACTTATCCGGTTTTAACGGAGTCACCTAGTGCAG,9060 fluorescence intensity (a.u.)
15,CTTCTGCTTATACTGAGCTTGTTGTTCTTGTTGTTTGTCGCGGAGTCACCTAGTGCAG,10600 fluorescence intensity (a.u.)
16,AACACCATGCCTACGCGATTCAGATCAATTTTACAGTTTTCGGAGTCACCTAGTGCAG,9730 fluorescence intensity (a.u.)
17,CCATTTTTTTTAGCTGACATGTGGGACCCATCATTTTTAACGGAGTCACCTAGTGCAG,9560 fluorescence intensity (a.u.)
18,TACTACCTCTTTGTTTCTCTCTCTATATATACCTATCCAACGGAGTCACCTAGTGCAG,8330 fluorescence intensity (a.u.)
19,ATTGTTGGGCTGCTTTATTTTATGGGCTGAATTCTTTCACCGGAGTCACCTAGTGCAG,10600 fluorescence intensity (a.u.)
20,ACCCTGCACCTCCTTCCTCGTCGACGCCATGGCAGCACCGCGGAGTCACCTAGTGCAG,9800 fluorescence intensity (a.u.)
21,TTCTTTTCGCTAGTGATGTCTAGCGTTTCTTTTGACAAATCGGAGTCACCTAGTGCAG,8560 fluorescence intensity (a.u.)

# Four entries from above, with tabs:
row	Sequence	binding signal
5	GATTGCTTTTATCTTGTTCTTGCTTGTTTCTTCGATTTGCCGGAGTCACCTAGTGCAG	8790 fluorescence intensity (a.u.)
12	TTTATAGTCCCGGTTGGTATTATATTGAATGTTTGGACATCGGAGTCACCTAGTGCAG	8200 fluorescence intensity (a.u.)
16	AACACCATGCCTACGCGATTCAGATCAATTTTACAGTTTTCGGAGTCACCTAGTGCAG	9730 fluorescence intensity (a.u.)
20	ACCCTGCACCTCCTTCCTCGTCGACGCCATGGCAGCACCGCGGAGTCACCTAGTGCAG	9800 fluorescence intensity (a.u.)

# The list goes on:

row,Sequence,binding signal
1,CTAGCTAACCACCCGTCACCCGATATCAACGCTAGGCCTTCGGAGTCACCTAGTGCAG,9300 fluorescence intensity (a.u.)
2,CCAACAACACCAGCTTCCGCTTCGAGTTCGTCGCCAACCGCGGAGTCACCTAGTGCAG,10000 fluorescence intensity (a.u.)
3,GAATGTTTACTTTGTTGCCGTTGCATGATCCCCTCCGCTCCGGAGTCACCTAGTGCAG,8430 fluorescence intensity (a.u.)
4,TCGGCGTTCTGTTCTGTTCTGCTTCTGCGCGCAGTGTATACGGAGTCACCTAGTGCAG,9870 fluorescence intensity (a.u.)
5,AGACCATTTCAGGAACGCAACGATTTTTAACTTTCTCTTGCGGAGTCACCTAGTGCAG,9610 fluorescence intensity (a.u.)
6,CATGACGACTTCTACCGCCGATCGTCTTCAACTGCGCGTCCGGAGTCACCTAGTGCAG,10100 fluorescence intensity (a.u.)
7,ACGCGCTCGTTGACTCCGTCGGGTCGCCGCTGTCGGCGGCCGGAGTCACCTAGTGCAG,8500 fluorescence intensity (a.u.)
8,AGTAGGCTCCTCCACTTCACCACCGTCCACAGTCTCGTTCCGGAGTCACCTAGTGCAG,8660 fluorescence intensity (a.u.)
9,GGGGATTTGGTGGCCACGACGGTTGCGATGCCGGCCGGGACGGAGTCACCTAGTGCAG,10400 fluorescence intensity (a.u.)
10,AATACTCCTCTACTCATATTAGTACAATATCACAAACTTACGGAGTCACCTAGTGCAG,8250 fluorescence intensity (a.u.)
11,CGACGACCCCACCAGGGCCATCAACATCCTCCTCGACTTTCGGAGTCACCTAGTGCAG,8160 fluorescence intensity (a.u.)
12,ATCTCTACTCGTCGCCGTGCTCATGGTCGTCCTCTTCGATCGGAGTCACCTAGTGCAG,13800 fluorescence intensity (a.u.)
13,AATCCCAAGCTAGGTGTTGACCATGGGTCAACAATCTCCCCGGAGTCACCTAGTGCAG,9470 fluorescence intensity (a.u.)
14,TTCTTTTGGTCTCTCTTTTTTGTTGGATCGATCTTGTCTCCGGAGTCACCTAGTGCAG,10200 fluorescence intensity (a.u.)
15,ATCGTACCATTATTCAAAATTTTAAATAGTTACATGTTCACGGAGTCACCTAGTGCAG,8120 fluorescence intensity (a.u.)
16,ATACATATACATACGGTTGACCACTTGGGCTGGGCTGGGCCGGAGTCACCTAGTGCAG,9200 fluorescence intensity (a.u.)
17,TTGTTTTTTTTGTGCTTGTGTTGTGTGTTCTTCCATCTGGCGGAGTCACCTAGTGCAG,8820 fluorescence intensity (a.u.)
18,ATGGTTTTGGTTTGGTTGTTGGAGAATTGTATATGCAGGGCGGAGTCACCTAGTGCAG,8760 fluorescence intensity (a.u.)
19,CATCTAGTTGCCTCTTGTTCTCTGCTCAGGCCGGTTTTGTCGGAGTCACCTAGTGCAG,9120 fluorescence intensity (a.u.)
20,CTCGTTTACCTTACTCTCGCTTAGTTCGTTGAGGCATTTCCGGAGTCACCTAGTGCAG,14900 fluorescence intensity (a.u.)
21,CCAAATTCTATGGCCATCTTTGTCTTCCAGTTTGATCCTTCGGAGTCACCTAGTGCAG,12200 fluorescence intensity (a.u.)

row,Sequence,binding signal
1,GCCGGATCGGGTGGCTGGGTTGGTTGAGGGTCCAAGAAAGCGGAGTCACCTAGTGCAG,12100 fluorescence intensity (a.u.)
2,ATGTTTGACCGTTCGTCTTATTCAAAAACTTTTGTAAAATCGGAGTCACCTAGTGCAG,10100 fluorescence intensity (a.u.)
3,TCTTTGCCTATCTCTGCTTCCTTCCTGTCTCCTTCTTCTTCGGAGTCACCTAGTGCAG,9220 fluorescence intensity (a.u.)
4,ATCCAGAATCCTCCAATGCCACACATGACCCGGTCAACATCGGAGTCACCTAGTGCAG,10200 fluorescence intensity (a.u.)
5,AATTCCTCTGCGGCCGCCACGTGCACGCGCCGCCGTTGCCCGGAGTCACCTAGTGCAG,8630 fluorescence intensity (a.u.)
6,GCATTCCGGACCATTCTCGCTCTCGCATGGCAAGGCCGGCCGGAGTCACCTAGTGCAG,8670 fluorescence intensity (a.u.)
7,CTTACATTATATTTTTCTTCATTTGTGTTTTATTTACAGTCGGAGTCACCTAGTGCAG,9710 fluorescence intensity (a.u.)
8,ATGCGAGGACGTTGACGATAGAGAGTTGACCAAGAATTTTCGGAGTCACCTAGTGCAG,9480 fluorescence intensity (a.u.)
9,GCTTGGTTTGGTTTGAGGCCTAGGCTTGTTCACTTTGATGCGGAGTCACCTAGTGCAG,8400 fluorescence intensity (a.u.)
10,AATCAATGTACTACCTACATCCTTAATCTATGACGCCATCCGGAGTCACCTAGTGCAG,8210 fluorescence intensity (a.u.)
11,TTACGTCTTAGAGTCCGTGCTACACCTGATCACTACAAATCGGAGTCACCTAGTGCAG,11100 fluorescence intensity (a.u.)
12,TCCCTGCTCATCGTCTGATCGCCACGCAAGCTGCCACGTCCGGAGTCACCTAGTGCAG,10700 fluorescence intensity (a.u.)
13,CCTTAATGCTCGAGATATACTAATACTACTCCCTTTGTTTCGGAGTCACCTAGTGCAG,10400 fluorescence intensity (a.u.)
14,CAATGTATTCAGGTACGCCGATTATTTGGTTGGTAGTAGTCGGAGTCACCTAGTGCAG,11500 fluorescence intensity (a.u.)
15,CACCTCACCGAGCTCCGCCCGCCACGAGACCATCCGTCGCCGGAGTCACCTAGTGCAG,8890 fluorescence intensity (a.u.)
16,GATGTGTTCTCCGTGTTCTTGATGTTTCCGGCTGGGGTTCCGGAGTCACCTAGTGCAG,9100 fluorescence intensity (a.u.)
17,ATTATGCTTGCTGCTGCTGCTGTTGTTGTAACACTAGTGACGGAGTCACCTAGTGCAG,10200 fluorescence intensity (a.u.)
18,CGATTGCTTGTAGTAACTCTTTCGTGTATTTATGGGGTTACGGAGTCACCTAGTGCAG,8360 fluorescence intensity (a.u.)
19,AATTTTATTTTTACCCCTACTTGGATATGTGCCCCTGTTTCGGAGTCACCTAGTGCAG,9100 fluorescence intensity (a.u.)
20,GCGGAATAGGAGGGCATCGATGTGCTGGGCTGTGAATTTTCGGAGTCACCTAGTGCAG,8280 fluorescence intensity (a.u.)
21,GTTCATTTCTAGTCGTCTTAATGTTTATTTGAAAATTTATCGGAGTCACCTAGTGCAG,8300 fluorescence intensity (a.u.)

row,Sequence,binding signal
1,TGGCTAGCGAGTCTTGACCCATTTGTCGGTCCACCTCTATCGGAGTCACCTAGTGCAG,8400 fluorescence intensity (a.u.)
2,ATCCCCATCCTATGCTCGCCCCATGTCGTCGCGTCCGCCTCGGAGTCACCTAGTGCAG,11100 fluorescence intensity (a.u.)
3,AATTTTAGAGTTAATTTTATTTTTACCGTACTTTATTTTTCGGAGTCACCTAGTGCAG,8040 fluorescence intensity (a.u.)
4,CCCGCCGCCTCCACGCATTCCTTCGCCCACCAAAACCCTACGGAGTCACCTAGTGCAG,9460 fluorescence intensity (a.u.)
5,TTCTTCTTCTTCTTCTTCGGTGACAATCTCCGTTTCGTCTCGGAGTCACCTAGTGCAG,8380 fluorescence intensity (a.u.)
6,AGTTCGCTGATCACCCAATCACCATTCGGTCTTCCATTCACGGAGTCACCTAGTGCAG,9900 fluorescence intensity (a.u.)
7,TGCTGCCGCCTTGTGTATAGCCTTGTGTATCTCCTTTGGCCGGAGTCACCTAGTGCAG,8310 fluorescence intensity (a.u.)
8,TAGTTCATCCTTGACATCAAGTGGGTTGCTAGTCTCATTCCGGAGTCACCTAGTGCAG,9450 fluorescence intensity (a.u.)
9,TATCTGCCATTAATCATTGACTTGTACATCTGTCTTGCTACGGAGTCACCTAGTGCAG,9400 fluorescence intensity (a.u.)
10,AATAAGACGAACGATCAAACATGTTTAAAAAAGTCAACGGCGGAGTCACCTAGTGCAG,9200 fluorescence intensity (a.u.)
11,TCATGTATAATTTTTCATTTTCCATTTATTACCGTCATCTCGGAGTCACCTAGTGCAG,8260 fluorescence intensity (a.u.)
12,ATTCCTTGATTTGTAACGTTCTTCTTGCATCTATTCTTCACGGAGTCACCTAGTGCAG,9540 fluorescence intensity (a.u.)
13,CCGCTTCTCTCTCTCTCTCTCTCTCTCTCTCTTTCTCTCTCGGAGTCACCTAGTGCAG,11800 fluorescence intensity (a.u.)
14,GTAAGGCCCTGTTTAGACCCTATCTAAAAATTTTCACTCTCGGAGTCACCTAGTGCAG,8690 fluorescence intensity (a.u.)
15,AAGTTTTAGTAAATACACACAATACATCATTTTTTCGAAACGGAGTCACCTAGTGCAG,11200 fluorescence intensity (a.u.)
16,TTCGATTCCAATTCCAGTTCGTCTCGCTCGCCGCCAAATCCGGAGTCACCTAGTGCAG,11600 fluorescence intensity (a.u.)
17,CCACAGGCTACTTCGCATCGCATCGCCTCACCCCGCCGCCCGGAGTCACCTAGTGCAG,9080 fluorescence intensity (a.u.)
18,TGCTACATCGATCGAGCTTACTAGCTTTCCATCATCCCACCGGAGTCACCTAGTGCAG,8740 fluorescence intensity (a.u.)
19,TCTGCTGTTTGAATTTCGAACCTTTTTTTTTGAAGTCCTTCGGAGTCACCTAGTGCAG,9180 fluorescence intensity (a.u.)
20,AGGCCCCATCACAATCTCCTCCTGTCCTGCCCGGTGTTTCCGGAGTCACCTAGTGCAG,8140 fluorescence intensity (a.u.)
21,ATAAATTTTCAACTTTTCTGTTATATCGTTTTAATTTCAACGGAGTCACCTAGTGCAG,8650 fluorescence intensity (a.u.)

# Source: PMC7819943, “Rice protein-binding microarrays: a tool to detect cis-acting elements near promoter regions in rice”
